Laboratory results as given in patent publication US20090118161A1 (BAYLOR COLLEGE OF MEDICINE, published 2009).
These are yes or no findings as the source states them, for the method shown. Some entries that bind do so weakly or less than the wild type.

By UniProt entry, the sequences of proteins in these tests, tags left out. Where a name states a change or a piece, a line headed by the entry shows the natural chain unless it says otherwise.
UniProt P02671: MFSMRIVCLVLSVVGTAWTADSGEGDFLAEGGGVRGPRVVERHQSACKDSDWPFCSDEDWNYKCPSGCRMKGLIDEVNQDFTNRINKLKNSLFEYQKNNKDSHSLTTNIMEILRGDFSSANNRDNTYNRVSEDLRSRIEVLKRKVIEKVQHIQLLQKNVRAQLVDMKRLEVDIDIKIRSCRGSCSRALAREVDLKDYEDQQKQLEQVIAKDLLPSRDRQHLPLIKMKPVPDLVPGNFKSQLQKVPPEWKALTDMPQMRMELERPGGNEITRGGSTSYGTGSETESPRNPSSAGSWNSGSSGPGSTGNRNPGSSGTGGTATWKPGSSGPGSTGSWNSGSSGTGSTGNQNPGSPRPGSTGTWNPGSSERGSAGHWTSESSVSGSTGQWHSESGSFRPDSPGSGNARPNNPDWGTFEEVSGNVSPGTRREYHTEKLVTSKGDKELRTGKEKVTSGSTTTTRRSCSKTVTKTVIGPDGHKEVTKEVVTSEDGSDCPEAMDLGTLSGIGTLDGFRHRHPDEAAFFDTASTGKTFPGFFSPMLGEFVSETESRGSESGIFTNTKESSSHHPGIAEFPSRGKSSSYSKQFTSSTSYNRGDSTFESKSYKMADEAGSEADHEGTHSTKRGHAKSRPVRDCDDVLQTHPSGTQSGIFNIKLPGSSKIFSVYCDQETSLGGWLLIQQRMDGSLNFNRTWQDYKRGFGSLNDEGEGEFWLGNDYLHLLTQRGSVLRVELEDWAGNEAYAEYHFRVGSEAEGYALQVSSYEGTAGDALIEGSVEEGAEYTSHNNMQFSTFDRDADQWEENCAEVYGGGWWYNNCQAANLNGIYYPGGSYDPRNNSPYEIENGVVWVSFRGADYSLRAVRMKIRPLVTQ
UniProt P02675: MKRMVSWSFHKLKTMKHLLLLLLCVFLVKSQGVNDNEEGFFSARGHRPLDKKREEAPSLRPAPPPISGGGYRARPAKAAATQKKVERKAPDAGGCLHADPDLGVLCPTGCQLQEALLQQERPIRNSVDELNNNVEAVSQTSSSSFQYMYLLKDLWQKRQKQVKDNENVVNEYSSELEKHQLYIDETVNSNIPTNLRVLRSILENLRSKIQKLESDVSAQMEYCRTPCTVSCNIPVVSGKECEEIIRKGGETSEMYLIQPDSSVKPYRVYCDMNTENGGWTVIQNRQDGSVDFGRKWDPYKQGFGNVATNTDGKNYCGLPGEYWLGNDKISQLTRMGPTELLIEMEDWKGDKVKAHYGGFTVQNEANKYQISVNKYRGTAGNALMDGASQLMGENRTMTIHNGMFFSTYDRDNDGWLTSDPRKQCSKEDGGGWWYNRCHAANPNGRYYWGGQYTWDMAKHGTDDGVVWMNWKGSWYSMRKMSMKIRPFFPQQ
UniProt P02679: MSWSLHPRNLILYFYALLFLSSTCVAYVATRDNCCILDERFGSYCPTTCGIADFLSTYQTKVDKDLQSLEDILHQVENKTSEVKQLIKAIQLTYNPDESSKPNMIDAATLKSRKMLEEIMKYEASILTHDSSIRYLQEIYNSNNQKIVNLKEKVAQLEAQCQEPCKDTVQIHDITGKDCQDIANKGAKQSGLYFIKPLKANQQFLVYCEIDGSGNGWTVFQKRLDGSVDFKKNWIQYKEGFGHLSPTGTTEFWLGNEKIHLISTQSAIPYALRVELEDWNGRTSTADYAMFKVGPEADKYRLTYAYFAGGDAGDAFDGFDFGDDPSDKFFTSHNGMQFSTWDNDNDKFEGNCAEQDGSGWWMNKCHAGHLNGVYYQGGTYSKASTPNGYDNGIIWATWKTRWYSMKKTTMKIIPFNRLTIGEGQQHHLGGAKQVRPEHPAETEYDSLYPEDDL

Target: Fragment D of fibrinogen (human) (UniProt P02671+P02675+P02679)
Experiment: ELISA on immobilized fragment D

B1: recombinant VWF-A2 domain polypeptide (amino acids G1481-R1668) (other)
chain: GLLGVSTLGPKRNSMVLDVAFVLEGSDKIGEADFNRSKEFMEEVIQRMDVGQDSIHVTVLQYSYMVTVEYPFSEAQSKGDILQRVREIRYQGGNRTNTGLALRYLSDHSFLVSQGDREQAPNLVYMVTGNPASDEIKRLPGDIQVVPIGVGPNANVQELERIGWPNAPILIQDFETLPREAPDLVLQR
notes: Expressed in E. coli as a fusion protein with a His tag at the N terminus; monomeric on SDS-PAGE; also called A2 protein; VWF-A2 protein; not shown: N-terminal His tag from the vector
For B1, the binding was “binds”.
